In the supplement of paper PMC9015667:
Where a name gives a salt, the structure may show the parent alone. Some of the results follow. Single values are uncertain, as repeats are few or missing.

Assays:
Assay in all cases: reduction in cell viability relative to untreated/vehicle; higher = more growth inhibition
Settings in all cases: 200 nM; 72 h
M229P = test system: M229P (parental melanoma line)
M229R = test system: M229R (matched melanoma line resistant to BRAF inhibitors)
M238P = test system: M238P (parental melanoma line)
M238R = test system: M238R (matched melanoma line resistant to BRAF inhibitors)
M249P = test system: M249P (parental melanoma line)
M249R = test system: M249R (matched melanoma line resistant to BRAF inhibitors)
UACC62P = test system: UACC62P (parental melanoma line)
UACC62R = test system: UACC62R (matched melanoma line resistant to BRAF inhibitors)

Q: With `Cc1ccc2c(c1)c1c(n2CCc2ccc(C)nc2)CCN(C)C1` [Latrepirdine hydrochloride] as the compound, how does the “reduction in cell viability” value (M229P) read?
A: < 0%

Q: And the “reduction in cell viability” value (M229R)?
A: < 0%

Q: What about the “reduction in cell viability” value (M238P) of the same compound?
A: < 0%

Q: What about the “reduction in cell viability” value (M238R) of the same compound?
A: < 0%

Q: What about the “reduction in cell viability” value (M249P) of the same compound?
A: < 0%

Q: What about the “reduction in cell viability” value (M249R) of the same compound?
A: < 0%

Q: What about the “reduction in cell viability” value (UACC62P) of the same compound?
A: < 0%

Q: What about the “reduction in cell viability” value (UACC62R) of the same compound?
A: < 0%

Q: Which “reduction in cell viability” value (M229P) does the source give for `CCOC(=O)N1CCC(=C2c3ccc(Cl)cc3CCc3cccnc32)CC1` [Loratadine] here?
A: < 0%

Q: And the “reduction in cell viability” value (M229R)?
A: < 0%

Q: And the “reduction in cell viability” value (M238P)?
A: < 0%

Q: And the “reduction in cell viability” value (M238R)?
A: < 0%

Q: What about the “reduction in cell viability” value (M249P) of the same compound?
A: < 0%

Q: And the “reduction in cell viability” value (M249R)?
A: < 0%

Q: And the “reduction in cell viability” value (UACC62P)?
A: < 0%

Q: What about the “reduction in cell viability” value (UACC62R) of the same compound?
A: < 0%

Q: With `O=C(NOC[C@H](O)CO)c1ccc(F)c(F)c1Nc1ccc(I)cc1F` as the compound, how does the “reduction in cell viability” value (M229P) read?
A: 32.3%

Q: What about the “reduction in cell viability” value (M229R) of the same compound?
A: 12.3%

Q: What about the “reduction in cell viability” value (M238P) of the same compound?
A: 33.9%

Q: And the “reduction in cell viability” value (M238R)?
A: < 0%

Q: And the “reduction in cell viability” value (M249P)?
A: 78%

Q: And the “reduction in cell viability” value (M249R)?
A: 42%

Q: And the “reduction in cell viability” value (UACC62P)?
A: 61.4%

Q: And the “reduction in cell viability” value (UACC62R)?
A: 32.4%

Q: With `CN1CCCN=C1/C=C/c1cccs1` [Pyrantel pamoate] as the compound, how does the “reduction in cell viability” value (M229P) read?
A: < 0%

Q: What about the “reduction in cell viability” value (M229R) of the same compound?
A: < 0%

Q: And the “reduction in cell viability” value (M238P)?
A: < 0%

Q: What about the “reduction in cell viability” value (M238R) of the same compound?
A: < 0%

Q: What about the “reduction in cell viability” value (M249P) of the same compound?
A: < 0%

Q: And the “reduction in cell viability” value (M249R)?
A: < 0%

Q: And the “reduction in cell viability” value (UACC62P)?
A: < 0%

Q: And the “reduction in cell viability” value (UACC62R)?
A: < 0%

Q: For `OC[C@@H](O)[C@@H](O)[C@H](O)[C@H](O)CO` [Mannitol], which “reduction in cell viability” value (M229P) is on record?
A: < 0%

Q: What about the “reduction in cell viability” value (M229R) of the same compound?
A: < 0%

Q: And the “reduction in cell viability” value (M238P)?
A: < 0%

Q: What about the “reduction in cell viability” value (M238R) of the same compound?
A: < 0%

Q: And the “reduction in cell viability” value (M249P)?
A: < 0%

Q: What about the “reduction in cell viability” value (M249R) of the same compound?
A: < 0%

Q: What about the “reduction in cell viability” value (UACC62P) of the same compound?
A: < 0%

Q: What about the “reduction in cell viability” value (UACC62R) of the same compound?
A: < 0%

Q: With `Clc1ccc2c(N3CCN(CCCN4CCN(c5ccnc6cc(Cl)ccc56)CC4)CC3)ccnc2c1` [Piperaquine] as the compound, how does the “reduction in cell viability” value (M229P) read?
A: < 0%

Q: What about the “reduction in cell viability” value (M229R) of the same compound?
A: < 0%

Q: And the “reduction in cell viability” value (M238P)?
A: < 0%

Q: What about the “reduction in cell viability” value (M238R) of the same compound?
A: < 0%

Q: And the “reduction in cell viability” value (M249P)?
A: < 0%

Q: And the “reduction in cell viability” value (M249R)?
A: < 0%

Q: What about the “reduction in cell viability” value (UACC62P) of the same compound?
A: < 0%

Q: And the “reduction in cell viability” value (UACC62R)?
A: < 0%

Q: What does the source list for `CCOC(CN1C(=O)[C@](CC(=O)Nc2ccc(C)cc2)(NC(=O)Nc2ccc(C)cc2)c2ccccc21)OCC`?
A: reduction in cell viability (M229P): < 0%; reduction in cell viability (M229R): < 0%; reduction in cell viability (M238P): < 0%; reduction in cell viability (M238R): < 0%; reduction in cell viability (M249P): < 0%; reduction in cell viability (M249R): < 0%; reduction in cell viability (UACC62P): < 0%; reduction in cell viability (UACC62R): < 0%

Q: `O=P(O)(O)C(O)(Cn1ccnc1)P(=O)(O)O` [Zoledronic acid monohydrate] was tested. Which “reduction in cell viability” value (M229P) did it give?
A: < 0%

Q: And the “reduction in cell viability” value (M229R)?
A: < 0%

Q: What about the “reduction in cell viability” value (M238P) of the same compound?
A: < 0%

Q: And the “reduction in cell viability” value (M238R)?
A: < 0%

Q: And the “reduction in cell viability” value (M249P)?
A: < 0%

Q: And the “reduction in cell viability” value (M249R)?
A: < 0%

Q: And the “reduction in cell viability” value (UACC62P)?
A: < 0%

Q: What about the “reduction in cell viability” value (UACC62R) of the same compound?
A: < 0%

Q: Which results are given for `CCc1cccc2c3c([nH]c12)C(CC)(CC(=O)O)OCC3` (centres undefined) [Etodolac]?
A: reduction in cell viability (M229P): < 0%; reduction in cell viability (M229R): < 0%; reduction in cell viability (M238P): < 0%; reduction in cell viability (M238R): < 0%; reduction in cell viability (M249P): < 0%; reduction in cell viability (M249R): < 0%; reduction in cell viability (UACC62P): < 0%; reduction in cell viability (UACC62R): < 0%

Q: `CC(C)C(=O)Nc1ccc([N+](=O)[O-])c(C(F)(F)F)c1` [Flutamide] was tested. Which “reduction in cell viability” value (M229P) did it give?
A: < 0%

Q: And the “reduction in cell viability” value (M229R)?
A: < 0%

Q: What about the “reduction in cell viability” value (M238P) of the same compound?
A: < 0%

Q: And the “reduction in cell viability” value (M238R)?
A: < 0%

Q: What about the “reduction in cell viability” value (M249P) of the same compound?
A: < 0%

Q: What about the “reduction in cell viability” value (M249R) of the same compound?
A: 19.5%

Q: What about the “reduction in cell viability” value (UACC62P) of the same compound?
A: < 0%

Q: What about the “reduction in cell viability” value (UACC62R) of the same compound?
A: < 0%

Q: With `O=C(NNC(=O)c1ccc(CNS(=O)(=O)c2ccc(F)c(Cl)c2)cc1)c1ccccc1` as the compound, how does the “reduction in cell viability” value (M229P) read?
A: < 0%

Q: And the “reduction in cell viability” value (M229R)?
A: < 0%

Q: And the “reduction in cell viability” value (M238P)?
A: < 0%

Q: And the “reduction in cell viability” value (M238R)?
A: < 0%

Q: And the “reduction in cell viability” value (M249P)?
A: < 0%

Q: What about the “reduction in cell viability” value (M249R) of the same compound?
A: < 0%

Q: What about the “reduction in cell viability” value (UACC62P) of the same compound?
A: 2.71%

Q: What about the “reduction in cell viability” value (UACC62R) of the same compound?
A: < 0%

Q: With `CCc1c2c(nc3ccc(OC(=O)N4CCC(N5CCCCC5)CC4)cc13)-c1cc3c(c(=O)n1C2)COC(=O)[C@]3(O)CC` [Irinotecan] as the compound, how does the “reduction in cell viability” value (M229P) read?
A: < 0%

Q: What about the “reduction in cell viability” value (M229R) of the same compound?
A: 13.4%

Q: What about the “reduction in cell viability” value (M238P) of the same compound?
A: 6.63%

Q: And the “reduction in cell viability” value (M238R)?
A: 10.4%

Q: What about the “reduction in cell viability” value (M249P) of the same compound?
A: 22.1%

Q: And the “reduction in cell viability” value (M249R)?
A: 28.2%

Q: And the “reduction in cell viability” value (UACC62P)?
A: 16.6%

Q: What about the “reduction in cell viability” value (UACC62R) of the same compound?
A: 13.1%

Q: `NC1=N[C@@]2(c3cc(NC(=O)c4ccc(F)cn4)ccc3F)COC[C@H]2CS1` was tested. Which “reduction in cell viability” value (M229P) did it give?
A: < 0%

Q: What about the “reduction in cell viability” value (M229R) of the same compound?
A: < 0%

Q: And the “reduction in cell viability” value (M238P)?
A: < 0%

Q: And the “reduction in cell viability” value (M238R)?
A: < 0%

Q: And the “reduction in cell viability” value (M249P)?
A: < 0%

Q: And the “reduction in cell viability” value (M249R)?
A: < 0%

Q: And the “reduction in cell viability” value (UACC62P)?
A: 6.38%

Q: What about the “reduction in cell viability” value (UACC62R) of the same compound?
A: < 0%

Q: How did the “reduction in cell viability” value (M229P) turn out when `C1COC(NC(C2CC2)C2CC2)=N1` [Rilmenidine] was run?
A: < 0%

Q: And the “reduction in cell viability” value (M229R)?
A: < 0%

Q: And the “reduction in cell viability” value (M238P)?
A: < 0%

Q: And the “reduction in cell viability” value (M238R)?
A: < 0%

Q: And the “reduction in cell viability” value (M249P)?
A: < 0%

Q: What about the “reduction in cell viability” value (M249R) of the same compound?
A: < 0%

Q: What about the “reduction in cell viability” value (UACC62P) of the same compound?
A: 2.37%

Q: What about the “reduction in cell viability” value (UACC62R) of the same compound?
A: < 0%

Q: With `Cc1cnc(NC(=O)C2=C(O)c3ccccc3S(=O)(=O)N2C)s1` [Meloxicam] as the compound, how does the “reduction in cell viability” value (M229P) read?
A: < 0%

Q: And the “reduction in cell viability” value (M229R)?
A: < 0%

Q: What about the “reduction in cell viability” value (M238P) of the same compound?
A: < 0%

Q: What about the “reduction in cell viability” value (M238R) of the same compound?
A: < 0%

Q: And the “reduction in cell viability” value (M249P)?
A: < 0%

Q: And the “reduction in cell viability” value (M249R)?
A: < 0%

Q: What about the “reduction in cell viability” value (UACC62P) of the same compound?
A: < 0%

Q: What about the “reduction in cell viability” value (UACC62R) of the same compound?
A: < 0%

Q: For `C=C1[C@H](CO)[C@@H](O)C[C@@H]1n1cnc2c(=O)[nH]c(N)nc21` [Entecavir], which “reduction in cell viability” value (M229P) is on record?
A: < 0%

Q: What about the “reduction in cell viability” value (M229R) of the same compound?
A: < 0%

Q: And the “reduction in cell viability” value (M238P)?
A: < 0%

Q: What about the “reduction in cell viability” value (M238R) of the same compound?
A: < 0%

Q: What about the “reduction in cell viability” value (M249P) of the same compound?
A: < 0%

Q: What about the “reduction in cell viability” value (M249R) of the same compound?
A: < 0%

Q: What about the “reduction in cell viability” value (UACC62P) of the same compound?
A: < 0%

Q: And the “reduction in cell viability” value (UACC62R)?
A: < 0%

Q: `OC[C@H]1O[C@@H](O[C@@H]2[C@@H](CO)OC(O)(CO)[C@H]2O)[C@H](O)[C@@H](O)[C@H]1O` (mixture of isomers) [Lactulose] was tested. Which “reduction in cell viability” value (M229P) did it give?
A: < 0%

Q: And the “reduction in cell viability” value (M229R)?
A: < 0%

Q: And the “reduction in cell viability” value (M238P)?
A: < 0%

Q: What about the “reduction in cell viability” value (M238R) of the same compound?
A: < 0%

Q: And the “reduction in cell viability” value (M249P)?
A: < 0%

Q: What about the “reduction in cell viability” value (M249R) of the same compound?
A: < 0%

Q: What about the “reduction in cell viability” value (UACC62P) of the same compound?
A: < 0%

Q: What about the “reduction in cell viability” value (UACC62R) of the same compound?
A: < 0%

Q: How did the “reduction in cell viability” value (M229P) turn out when `O=C1CCC[C@@H]2[C@H]3CCC[N+]4([O-])CCC[C@@H](CN12)[C@@H]34` (some centres undefined) [Oxymatrine] was run?
A: < 0%

Q: And the “reduction in cell viability” value (M229R)?
A: < 0%

Q: And the “reduction in cell viability” value (M238P)?
A: < 0%

Q: And the “reduction in cell viability” value (M238R)?
A: < 0%

Q: And the “reduction in cell viability” value (M249P)?
A: < 0%

Q: What about the “reduction in cell viability” value (M249R) of the same compound?
A: < 0%

Q: And the “reduction in cell viability” value (UACC62P)?
A: < 0%

Q: And the “reduction in cell viability” value (UACC62R)?
A: < 0%
